# The supplement of paper PMC8728848
# This is one part of the list.
# B1: PX14404-bvu-534-26-534 (Bacteroides vulgatus) (protein)
# chain: EDPRGKLTPENFFSTQDELNMSIYALYQKVNLSQVYTNMQLPQWQGDDITTNPGSNKQPAAEMDKFAAANNNKGVKDAWNMHYAIVKAANLIIQGASKTPTTQDEINIALGQAKFWRAYAYFTLVRLWGPLPMNLDNVNDDYTKPLSPVEEVYGHIVQDLTEAEAVLPTGYSGSPRFLNGVNVYVTRQAAKSTLAAVYMAMAGWPMNKTEYYAKAAEKAKEVIEGVNRGEYEYKLDKDYKDVYAMSNNYNNETVLGINYSPFVDWAQDSELTSCNQFESLGGWGDAWGEIRFWKEFPDGPRKDATYDPKIRLKDGTLVDWWELKEDGTPVVPEHHPMFSIFSVNWDPASKVNTSAPYDYTKPASQNMCNDHRHRIIRYSEVLLWYAEAKARTGQTDELAFKCLNDVRERAGLEPLTGLSADDLAEAAYKEHGWEVAGYWVALVTRRADQFRMNRLKDTFKERAENTAVEVADGILVKESVEYTNRTWSDNLMYLPYPDMDSQKNPNLVR
# How the values were obtained:
# Assay in all cases: glycan array binding signal (z-score within array); higher = stronger binding
# Conditions in all cases: glycan notation: IUPAC condensed, linker removed
# [1] = target: Gal(b1-4)GlcNAc(b1-3)Gal(b1-4)Glc
# Method in brief: (§1)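 From the Consortium for Functional Glycomics database, 3228 arrays were curated, keeping only those whose protein sequence was available. Binding is given as a within-array Z-score averaged across arrays sharing a protein sequence and across linkers. Negative Z-scores can be read as non-binding.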
# [2] = target: Gal(b1-4)GlcNAc(b1-3)Gal(b1-4)GlcNAc
# Method in brief: as §1
# [3] = target: Gal(b1-4)GlcNAc(b1-3)Gal(b1-4)GlcNAc(b1-2)Man(a1-3)[Gal(b1-4)GlcNAc(b1-3)Gal(b1-4)GlcNAc(b1-2)Man(a1-6)]Man(b1-4)GlcNAc(b1-4)GlcNAc
# Method in brief: as §1
# [4] = target: Gal(b1-4)GlcNAc(b1-3)Gal(b1-4)GlcNAc(b1-2)Man(a1-3)[Gal(b1-4)GlcNAc(b1-3)Gal(b1-4)GlcNAc(b1-2)Man(a1-6)]Man(b1-4)GlcNAc(b1-4)[Fuc(a1-6)]GlcNAc
# Method in brief: as §1
# [5] = target: Gal(b1-4)GlcNAc(b1-3)Gal(b1-4)GlcNAc(b1-2)[Gal(b1-4)GlcNAc(b1-3)Gal(b1-4)GlcNAc(b1-6)]Man(a1-6)[Gal(b1-4)GlcNAc(b1-3)Gal(b1-4)GlcNAc(b1-2)Man(a1-3)]Man(b1-4)GlcNAc(b1-4)GlcNAc
# Method in brief: as §1
# [6] = target: Gal(b1-4)GlcNAc(b1-3)Gal(b1-4)GlcNAc(b1-2)[Gal(b1-4)GlcNAc(b1-3)Gal(b1-4)GlcNAc(b1-6)]Man(a1-6)[Gal(b1-4)GlcNAc(b1-3)Gal(b1-4)GlcNAc(b1-2)Man(a1-3)]Man(b1-4)GlcNAc(b1-4)[Fuc(a1-6)]GlcNAc
# Method in brief: as §1
# [7] = target: Gal(b1-4)GlcNAc(b1-3)Gal(b1-4)GlcNAc(b1-3)Gal(b1-4)GlcNAc
# Method in brief: as §1
# [8] = target: Gal(b1-4)GlcNAc(b1-3)Gal(b1-4)GlcNAc(b1-3)Gal(b1-4)GlcNAc(b1-2)Man(a1-3)[Gal(b1-4)GlcNAc(b1-3)Gal(b1-4)GlcNAc(b1-3)Gal(b1-4)GlcNAc(b1-2)Man(a1-6)]Man(b1-4)GlcNAc(b1-4)GlcNAc
# Method in brief: as §1
# [9] = target: Gal(b1-4)GlcNAc(b1-3)Gal(b1-4)GlcNAc(b1-3)Gal(b1-4)GlcNAc(b1-2)Man(a1-3)[Gal(b1-4)GlcNAc(b1-3)Gal(b1-4)GlcNAc(b1-3)Gal(b1-4)GlcNAc(b1-2)Man(a1-6)]Man(b1-4)GlcNAc(b1-4)[Fuc(a1-6)]GlcNAc
# Method in brief: as §1
# [10] = target: Gal(b1-4)GlcNAc(b1-3)Gal(b1-4)GlcNAc(b1-3)Gal(b1-4)GlcNAc(b1-2)[Gal(b1-4)GlcNAc(b1-3)Gal(b1-4)GlcNAc(b1-3)Gal(b1-4)GlcNAc(b1-6)]Man(a1-6)[Gal(b1-4)GlcNAc(b1-3)Gal(b1-4)GlcNAc(b1-3)Gal(b1-4)GlcNAc(b1-2)Man(a1-3)]Man(b1-4)GlcNAc(b1-4)[Fuc(a1-6)]GlcNAc
# Method in brief: as §1
# [11] = target: Gal(b1-4)GlcNAc(b1-3)Gal(b1-4)GlcNAc(b1-3)Gal(b1-4)GlcNAc(b1-3)Gal(b1-4)GlcNAc(b1-2)Man(a1-3)[Gal(b1-4)GlcNAc(b1-3)Gal(b1-4)GlcNAc(b1-3)Gal(b1-4)GlcNAc(b1-3)Gal(b1-4)GlcNAc(b1-2)Man(a1-6)]Man(b1-4)GlcNAc(b1-4)GlcNAc
# Method in brief: as §1
# [12] = target: Gal(b1-4)GlcNAc(b1-3)Gal(b1-4)GlcNAc(b1-3)Gal(b1-4)GlcNAc(b1-3)Gal(b1-4)GlcNAc(b1-2)Man(a1-3)[Gal(b1-4)GlcNAc(b1-3)Gal(b1-4)GlcNAc(b1-3)Gal(b1-4)GlcNAc(b1-3)Gal(b1-4)GlcNAc(b1-2)Man(a1-6)]Man(b1-4)GlcNAc(b1-4)[Fuc(a1-6)]GlcNAc
# Method in brief: as §1
# [13] = target: Gal(b1-4)GlcNAc(b1-3)Gal(b1-4)GlcNAc(b1-3)Gal(b1-4)GlcNAc(b1-3)Gal(b1-4)GlcNAc(b1-2)[Gal(b1-4)GlcNAc(b1-3)Gal(b1-4)GlcNAc(b1-3)Gal(b1-4)GlcNAc(b1-3)Gal(b1-4)GlcNAc(b1-6)]Man(a1-6)[Gal(b1-4)GlcNAc(b1-3)Gal(b1-4)GlcNAc(b1-3)Gal(b1-4)GlcNAc(b1-3)Gal(b1-4)GlcNAc(b1-2)Man(a1-3)]Man(b1-4)GlcNAc(b1-4)[Fuc(a1-6)]GlcNAc
# Method in brief: as §1
# [14] = target: Gal(b1-4)GlcNAc(b1-3)Gal(b1-4)GlcNAc(b1-3)Gal(b1-4)GlcNAc(b1-3)Gal(b1-4)GlcNAc(b1-3)Gal(b1-4)GlcNAc(b1-2)Man(a1-3)[Gal(b1-4)GlcNAc(b1-3)Gal(b1-4)GlcNAc(b1-3)Gal(b1-4)GlcNAc(b1-3)Gal(b1-4)GlcNAc(b1-3)Gal(b1-4)GlcNAc(b1-2)Man(a1-6)]Man(b1-4)GlcNAc(b1-4)GlcNAc
# Method in brief: as §1
# [15] = target: Gal(b1-4)GlcNAc(b1-3)Gal(b1-4)GlcNAc(b1-3)Gal(b1-4)GlcNAc(b1-3)Gal(b1-4)GlcNAc(b1-3)Gal(b1-4)GlcNAc(b1-2)Man(a1-3)[Gal(b1-4)GlcNAc(b1-3)Gal(b1-4)GlcNAc(b1-3)Gal(b1-4)GlcNAc(b1-3)Gal(b1-4)GlcNAc(b1-3)Gal(b1-4)GlcNAc(b1-2)Man(a1-6)]Man(b1-4)GlcNAc(b1-4)[Fuc(a1-6)]GlcNAc
# Method in brief: as §1
# [16] = target: Gal(b1-4)GlcNAc(b1-3)Gal(b1-4)GlcNAc(b1-3)Gal(b1-4)GlcNAc(b1-3)Gal(b1-4)GlcNAc(b1-3)Gal(b1-4)GlcNAc(b1-2)[Gal(b1-4)GlcNAc(b1-3)Gal(b1-4)GlcNAc(b1-3)Gal(b1-4)GlcNAc(b1-3)Gal(b1-4)GlcNAc(b1-3)Gal(b1-4)GlcNAc(b1-6)]Man(a1-6)[Gal(b1-4)GlcNAc(b1-3)Gal(b1-4)GlcNAc(b1-3)Gal(b1-4)GlcNAc(b1-3)Gal(b1-4)GlcNAc(b1-3)Gal(b1-4)GlcNAc(b1-2)Man(a1-3)]Man(b1-4)GlcNAc(b1-4)[Fuc(a1-6)]GlcNAc
# Method in brief: as §1
# [17] = target: Gal(b1-4)GlcNAc(b1-3)Gal(b1-4)GlcNAc(b1-3)Gal(b1-4)GlcNAc(b1-3)Gal(b1-4)GlcNAc(b1-3)Gal(b1-4)GlcNAc(b1-3)Gal(b1-4)GlcNAc(b1-2)Man(a1-3)[Gal(b1-4)GlcNAc(b1-3)Gal(b1-4)GlcNAc(b1-3)Gal(b1-4)GlcNAc(b1-3)Gal(b1-4)GlcNAc(b1-3)Gal(b1-4)GlcNAc(b1-3)Gal(b1-4)GlcNAc(b1-2)Man(a1-6)]Man(b1-4)GlcNAc(b1-4)GlcNAc
# Method in brief: as §1
# [18] = target: Gal(b1-4)GlcNAc(b1-3)Gal(b1-4)GlcNAc(b1-3)GalNAc
# Method in brief: as §1
# [19] = target: Gal(b1-4)GlcNAc(b1-3)Gal(b1-4)GlcNAc(b1-3)[Gal(b1-4)GlcNAc(b1-3)Gal(b1-4)GlcNAc(b1-6)]GalNAc
# Method in brief: as §1
binder,measurement,setting,value
B1,glycan array binding signal (z-score),[1],-0.063
same,glycan array binding signal (z-score),[2],-0.608
same,glycan array binding signal (z-score),[3],0.621
same,glycan array binding signal (z-score),[4],0.378
same,glycan array binding signal (z-score),[5],0.713
same,glycan array binding signal (z-score),[6],0.612
same,glycan array binding signal (z-score),[7],-1.59
same,glycan array binding signal (z-score),[8],1.01
same,glycan array binding signal (z-score),[9],0.054
same,glycan array binding signal (z-score),[10],0.343
same,glycan array binding signal (z-score),[11],-0.238
same,glycan array binding signal (z-score),[12],-0.463
same,glycan array binding signal (z-score),[13],1.17
same,glycan array binding signal (z-score),[14],-0.664
same,glycan array binding signal (z-score),[15],0.247
same,glycan array binding signal (z-score),[16],0.462
same,glycan array binding signal (z-score),[17],0.739
same,glycan array binding signal (z-score),[18],-0.874
same,glycan array binding signal (z-score),[19],-0.105

# Some of the entries so far, as tab-separated lines:
binder	measurement	setting	value
B1	glycan array binding signal (z-score)	[6]	0.612
same	glycan array binding signal (z-score)	[7]	-1.59
